In paper doi:10.1101/2020.04.16.044081:
Like-named read-outs stand apart in the source and are kept apart here. These are yes or no findings as the source states them, for the method shown. In cells and extracts the contact can be indirect. Some results given as binding are weak or reduced against the parent protein; the word gives no strength. For some assays here: Where a sequence is shown, tags or fusion partners need not be part of it. Values belong to the binder of their own block, whether it stands above or below them.

Sequences of proteins named here, by UniProt entry; tags and fusion partners are left off. Residues count along the entry.
UniProt P13473, residues 29-410: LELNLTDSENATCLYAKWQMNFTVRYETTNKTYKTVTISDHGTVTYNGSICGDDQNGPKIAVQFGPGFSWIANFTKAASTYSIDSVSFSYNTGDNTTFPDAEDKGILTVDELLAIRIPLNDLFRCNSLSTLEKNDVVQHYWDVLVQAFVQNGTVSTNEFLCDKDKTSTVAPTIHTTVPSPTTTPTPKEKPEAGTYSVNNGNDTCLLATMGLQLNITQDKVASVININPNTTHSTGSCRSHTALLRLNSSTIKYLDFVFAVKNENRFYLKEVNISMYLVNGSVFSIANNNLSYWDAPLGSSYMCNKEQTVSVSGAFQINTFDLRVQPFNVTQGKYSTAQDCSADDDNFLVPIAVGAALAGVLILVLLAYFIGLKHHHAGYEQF
UniProt P49815: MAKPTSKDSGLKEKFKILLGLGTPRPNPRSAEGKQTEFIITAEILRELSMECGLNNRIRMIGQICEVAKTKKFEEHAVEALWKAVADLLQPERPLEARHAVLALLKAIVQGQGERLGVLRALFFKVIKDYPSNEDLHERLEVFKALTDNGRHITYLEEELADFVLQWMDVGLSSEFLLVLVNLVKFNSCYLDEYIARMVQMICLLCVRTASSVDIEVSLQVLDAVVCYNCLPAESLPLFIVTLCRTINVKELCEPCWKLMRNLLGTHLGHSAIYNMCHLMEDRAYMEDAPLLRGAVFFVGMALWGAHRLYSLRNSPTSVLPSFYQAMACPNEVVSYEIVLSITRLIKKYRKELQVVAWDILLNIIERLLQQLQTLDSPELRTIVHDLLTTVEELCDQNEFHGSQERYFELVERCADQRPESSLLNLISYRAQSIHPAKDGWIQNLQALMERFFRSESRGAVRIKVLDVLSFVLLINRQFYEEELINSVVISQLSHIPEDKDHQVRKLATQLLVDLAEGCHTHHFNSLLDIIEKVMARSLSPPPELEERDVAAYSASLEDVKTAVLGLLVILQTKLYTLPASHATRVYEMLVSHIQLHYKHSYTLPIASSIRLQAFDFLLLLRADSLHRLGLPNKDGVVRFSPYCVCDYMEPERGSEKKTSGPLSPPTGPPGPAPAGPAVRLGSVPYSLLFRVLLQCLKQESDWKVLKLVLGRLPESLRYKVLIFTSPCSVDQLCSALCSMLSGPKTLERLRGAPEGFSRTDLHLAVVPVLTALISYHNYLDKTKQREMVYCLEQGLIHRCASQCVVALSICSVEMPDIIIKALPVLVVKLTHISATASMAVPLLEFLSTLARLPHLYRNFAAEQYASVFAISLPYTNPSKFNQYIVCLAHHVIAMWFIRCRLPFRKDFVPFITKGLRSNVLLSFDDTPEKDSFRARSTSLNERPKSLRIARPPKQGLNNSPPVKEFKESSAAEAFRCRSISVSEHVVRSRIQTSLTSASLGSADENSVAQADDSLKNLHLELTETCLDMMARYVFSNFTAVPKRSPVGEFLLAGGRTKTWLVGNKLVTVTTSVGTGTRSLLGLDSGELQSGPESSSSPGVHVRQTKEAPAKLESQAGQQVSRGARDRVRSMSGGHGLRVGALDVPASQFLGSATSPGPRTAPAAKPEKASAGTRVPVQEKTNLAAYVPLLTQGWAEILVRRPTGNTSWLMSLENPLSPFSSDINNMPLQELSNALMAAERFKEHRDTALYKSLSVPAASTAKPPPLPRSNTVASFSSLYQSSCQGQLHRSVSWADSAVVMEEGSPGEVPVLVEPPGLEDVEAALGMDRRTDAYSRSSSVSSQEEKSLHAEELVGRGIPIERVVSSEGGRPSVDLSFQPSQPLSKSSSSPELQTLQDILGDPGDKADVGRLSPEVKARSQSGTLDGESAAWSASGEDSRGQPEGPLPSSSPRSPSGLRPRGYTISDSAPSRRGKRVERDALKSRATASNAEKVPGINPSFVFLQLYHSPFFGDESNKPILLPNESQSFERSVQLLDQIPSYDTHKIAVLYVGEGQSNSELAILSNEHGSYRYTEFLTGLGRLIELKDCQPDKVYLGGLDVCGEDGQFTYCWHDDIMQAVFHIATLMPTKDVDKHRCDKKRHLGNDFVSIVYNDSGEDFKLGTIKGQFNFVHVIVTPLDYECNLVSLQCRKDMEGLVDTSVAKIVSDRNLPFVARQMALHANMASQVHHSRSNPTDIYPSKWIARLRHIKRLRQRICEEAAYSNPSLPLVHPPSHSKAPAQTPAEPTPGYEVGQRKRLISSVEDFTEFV

Legend:
[1] = molecular target: T1, N-terminal mLumin fragment fused to LAMP1 (pGW-HA-LN151-LAMP1) (human) (UniProt P11279); assay: split reporter
T1 sequence: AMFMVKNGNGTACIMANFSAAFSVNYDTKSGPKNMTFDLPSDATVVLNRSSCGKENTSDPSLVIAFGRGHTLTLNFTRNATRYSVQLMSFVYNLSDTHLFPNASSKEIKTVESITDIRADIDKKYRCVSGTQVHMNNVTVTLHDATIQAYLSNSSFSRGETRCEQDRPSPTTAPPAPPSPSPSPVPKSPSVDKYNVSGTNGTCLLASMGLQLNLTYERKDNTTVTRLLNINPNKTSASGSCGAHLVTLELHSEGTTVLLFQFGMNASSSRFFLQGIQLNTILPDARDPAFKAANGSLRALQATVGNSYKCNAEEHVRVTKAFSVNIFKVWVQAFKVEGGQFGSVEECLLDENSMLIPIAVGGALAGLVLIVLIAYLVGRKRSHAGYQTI

[2] = molecular target: N-terminal mLumin fragment fused to LAMP2 (pGW-HA-LN151-LAMP2) (human) (UniProt P13473); assay: split reporter
[3] = molecular target: N-terminal mLumin fragment fused to TSC2 (pGW-HA-LN151-TSC2) (human) (UniProt P49815); assay: split reporter
[4] = molecular target: TSC2 (tuberin), endogenous human (human (endogenous in MCF-7, MDA-MB-231, HEK293T)) (UniProt P49815); assay: co-IP
[5] = molecular target: TSC2 (tuberin), endogenous human (human (endogenous in MCF-7, MDA-MB-231, HEK293T)), P49815; assay: co-IP; conditions: remark: other sources report otherwise
[6] = molecular target: T2, TSC1 (hamartin), endogenous human (human (endogenous in MCF-7, MDA-MB-231)) (UniProt Q92574); assay: co-IP
T2 sequence: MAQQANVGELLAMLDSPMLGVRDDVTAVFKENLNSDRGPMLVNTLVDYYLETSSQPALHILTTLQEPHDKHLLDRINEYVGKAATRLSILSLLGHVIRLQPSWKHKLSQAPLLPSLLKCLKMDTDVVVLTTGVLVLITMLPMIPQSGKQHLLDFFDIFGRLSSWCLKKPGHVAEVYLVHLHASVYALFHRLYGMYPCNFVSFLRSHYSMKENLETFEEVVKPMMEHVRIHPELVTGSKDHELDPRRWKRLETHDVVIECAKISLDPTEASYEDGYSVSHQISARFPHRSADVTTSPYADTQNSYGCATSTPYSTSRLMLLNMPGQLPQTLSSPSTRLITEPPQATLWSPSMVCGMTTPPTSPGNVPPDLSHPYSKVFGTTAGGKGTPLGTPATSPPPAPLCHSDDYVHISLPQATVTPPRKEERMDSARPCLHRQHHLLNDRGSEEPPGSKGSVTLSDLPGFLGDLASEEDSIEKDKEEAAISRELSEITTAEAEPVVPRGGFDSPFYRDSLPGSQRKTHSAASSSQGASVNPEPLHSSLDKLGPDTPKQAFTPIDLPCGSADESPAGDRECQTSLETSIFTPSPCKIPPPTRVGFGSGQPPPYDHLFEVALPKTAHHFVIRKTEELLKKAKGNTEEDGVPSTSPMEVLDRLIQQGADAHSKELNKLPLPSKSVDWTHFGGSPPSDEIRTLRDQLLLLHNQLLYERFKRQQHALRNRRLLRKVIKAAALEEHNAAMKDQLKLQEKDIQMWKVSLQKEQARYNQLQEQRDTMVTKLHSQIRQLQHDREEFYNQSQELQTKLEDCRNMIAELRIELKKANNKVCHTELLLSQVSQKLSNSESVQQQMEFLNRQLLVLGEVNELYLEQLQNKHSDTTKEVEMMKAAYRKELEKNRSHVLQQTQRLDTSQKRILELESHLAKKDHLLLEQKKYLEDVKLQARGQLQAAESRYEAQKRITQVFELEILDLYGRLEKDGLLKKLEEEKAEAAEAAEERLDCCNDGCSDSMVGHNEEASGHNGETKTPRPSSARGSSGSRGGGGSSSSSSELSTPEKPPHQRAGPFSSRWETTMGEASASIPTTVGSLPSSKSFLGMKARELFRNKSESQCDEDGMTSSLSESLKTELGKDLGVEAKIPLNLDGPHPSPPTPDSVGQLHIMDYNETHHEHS

[7] = molecular target: TSC2 (tuberin), endogenous human (human (endogenous in MCF-7, MDA-MB-231, HEK293T)) (UniProt P49815); assay: co-IP; remark: listed apart in the source

B1: G3BP2 fused to a C-terminal mLumin fragment (pGW-MYC-LC151-G3BP2) (protein, UniProt Q9UN86 1-482)
chain: MVMEKPSPLLVGREFVRQYYTLLNKAPEYLHRFYGRNSSYVHGGVDASGKPQEAVYGQNDIHHKVLSLNFSECHTKIRHVDAHATLSDGVVVQVMGLLSNSGQPERKFMQTFVLAPEGSVPNKFYVHNDMFRYEDEVFGDSEPELDEESEDEVEEEQEERQPSPEPVQENANSGYYEAHPVTNGIEEPLEESSHEPEPEPESETKTEELKPQVEEKNLEELEEKSTTPPPAEPVSLPQEPPKAFSWASVTSKNLPPSGTVSSSGIPPHVKAPVSQPRVEAKPEVQSQPPRVREQRPRERPGFPPRGPRPGRGDMEQNDSDNRRIIRYPDSHQLFVGNLPHDIDENELKEFFMSFGNVVELRINTKGVGGKLPNFGFVVFDDSEPVQRILIAKPIMFRGEVRLNVEEKKTRAARERETRGGGDDRRDIRRNDRGPGGPRGIVGGGMMRDRDGRGPPPRGGMAQKLGSGRGTGQMEGRFTGQRR
binding [1]: binds | binding [2]: binds | binding [3]: binds

B2: G3BP2, endogenous human (protein, UniProt Q9UN86 1-482)
chain: MVMEKPSPLLVGREFVRQYYTLLNKAPEYLHRFYGRNSSYVHGGVDASGKPQEAVYGQNDIHHKVLSLNFSECHTKIRHVDAHATLSDGVVVQVMGLLSNSGQPERKFMQTFVLAPEGSVPNKFYVHNDMFRYEDEVFGDSEPELDEESEDEVEEEQEERQPSPEPVQENANSGYYEAHPVTNGIEEPLEESSHEPEPEPESETKTEELKPQVEEKNLEELEEKSTTPPPAEPVSLPQEPPKAFSWASVTSKNLPPSGTVSSSGIPPHVKAPVSQPRVEAKPEVQSQPPRVREQRPRERPGFPPRGPRPGRGDMEQNDSDNRRIIRYPDSHQLFVGNLPHDIDENELKEFFMSFGNVVELRINTKGVGGKLPNFGFVVFDDSEPVQRILIAKPIMFRGEVRLNVEEKKTRAARERETRGGGDDRRDIRRNDRGPGGPRGIVGGGMMRDRDGRGPPPRGGMAQKLGSGRGTGQMEGRFTGQRR
binding [4]: binds

More lines, now with the values ahead:

binding [5]: binds
B3: TBC1D7, endogenous human, Q9P0N9 1-293 (protein)
chain: MTEDSQRNFRSVYYEKVGFRGVEEKKSLEILLKDDRLDTEKLCTFSQRFPLPSMYRALVWKVLLGILPPHHESHAKVMMYRKEQYLDVLHALKVVRFVSDATPQAEVYLRMYQLESGKLPRSPSFPLEPDDEVFLAIAKAMEEMVEDSVDCYWITRRFVNQLNTKYRDSLPQLPKAFEQYLNLEDGRLLTHLRMCSAAPKLPYDLWFKRCFAGCLPESSLQRVWDKVVSGSCKILVFVAVEILLTFKIKVMALNSAEKITKFLENIPQDSSDAIVSKAIDLWHKHCGTPVHSS

binding [6]: binds
B4: TBC1D7, endogenous human (protein, UniProt Q9P0N9 1-293)
chain: MTEDSQRNFRSVYYEKVGFRGVEEKKSLEILLKDDRLDTEKLCTFSQRFPLPSMYRALVWKVLLGILPPHHESHAKVMMYRKEQYLDVLHALKVVRFVSDATPQAEVYLRMYQLESGKLPRSPSFPLEPDDEVFLAIAKAMEEMVEDSVDCYWITRRFVNQLNTKYRDSLPQLPKAFEQYLNLEDGRLLTHLRMCSAAPKLPYDLWFKRCFAGCLPESSLQRVWDKVVSGSCKILVFVAVEILLTFKIKVMALNSAEKITKFLENIPQDSSDAIVSKAIDLWHKHCGTPVHSS

binding [7]: binds | binding [4]: binds
B5: TSC1 (hamartin), endogenous human (protein, UniProt Q92574 1-1164)
chain: MAQQANVGELLAMLDSPMLGVRDDVTAVFKENLNSDRGPMLVNTLVDYYLETSSQPALHILTTLQEPHDKHLLDRINEYVGKAATRLSILSLLGHVIRLQPSWKHKLSQAPLLPSLLKCLKMDTDVVVLTTGVLVLITMLPMIPQSGKQHLLDFFDIFGRLSSWCLKKPGHVAEVYLVHLHASVYALFHRLYGMYPCNFVSFLRSHYSMKENLETFEEVVKPMMEHVRIHPELVTGSKDHELDPRRWKRLETHDVVIECAKISLDPTEASYEDGYSVSHQISARFPHRSADVTTSPYADTQNSYGCATSTPYSTSRLMLLNMPGQLPQTLSSPSTRLITEPPQATLWSPSMVCGMTTPPTSPGNVPPDLSHPYSKVFGTTAGGKGTPLGTPATSPPPAPLCHSDDYVHISLPQATVTPPRKEERMDSARPCLHRQHHLLNDRGSEEPPGSKGSVTLSDLPGFLGDLASEEDSIEKDKEEAAISRELSEITTAEAEPVVPRGGFDSPFYRDSLPGSQRKTHSAASSSQGASVNPEPLHSSLDKLGPDTPKQAFTPIDLPCGSADESPAGDRECQTSLETSIFTPSPCKIPPPTRVGFGSGQPPPYDHLFEVALPKTAHHFVIRKTEELLKKAKGNTEEDGVPSTSPMEVLDRLIQQGADAHSKELNKLPLPSKSVDWTHFGGSPPSDEIRTLRDQLLLLHNQLLYERFKRQQHALRNRRLLRKVIKAAALEEHNAAMKDQLKLQEKDIQMWKVSLQKEQARYNQLQEQRDTMVTKLHSQIRQLQHDREEFYNQSQELQTKLEDCRNMIAELRIELKKANNKVCHTELLLSQVSQKLSNSESVQQQMEFLNRQLLVLGEVNELYLEQLQNKHSDTTKEVEMMKAAYRKELEKNRSHVLQQTQRLDTSQKRILELESHLAKKDHLLLEQKKYLEDVKLQARGQLQAAESRYEAQKRITQVFELEILDLYGRLEKDGLLKKLEEEKAEAAEAAEERLDCCNDGCSDSMVGHNEEASGHNGETKTPRPSSARGSSGSRGGGGSSSSSSELSTPEKPPHQRAGPFSSRWETTMGEASASIPTTVGSLPSSKSFLGMKARELFRNKSESQCDEDGMTSSLSESLKTELGKDLGVEAKIPLNLDGPHPSPPTPDSVGQLHIMDYNETHHEHS
